Measurements published in the supplement of paper PMC4604168 (melanoma cell lines).
Some of the results follow. Repeats are few or missing, and single values can be far off.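 The apoptosis fraction was the count of cleaved-PARP antibody-stained nuclei relative to all DNA-stained nuclei, imaged in 1,536-well plates. Screening doses were set so most cells survived, and baseline and induced cleaved-PARP levels vary greatly across cell lines.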

Experiments:
Assay in all cases: cleaved PARP positive nuclei fraction relative to DMSO control; melanoma cells; higher = more apoptosis
Conditions in all cases: library dose: low library concentration; 72 h
[1] = test system: MZ2-MEL
[2] = test system: MeWo
[3] = test system: RPMI7951
[4] = test system: RVH-421
[5] = test system: SkMel28
[6] = test system: SkMel2
[7] = test system: SkMel30
[8] = test system: SkMel5
[9] = test system: UACC257
[10] = test system: UACC62

CC1(C)CCC(c2ccc(Cl)cc2)=C(CN2CCN(c3ccc(C(=O)NS(=O)(=O)c4ccc(N[C@H](CCN5CCOCC5)CSc5ccccc5)c(S(=O)(=O)C(F)(F)F)c4)cc3)CC2)C1 + COC(=O)c1sccc1S(=O)(=O)Nc1ccc(Nc2ccccc2)cc1OC [GSK0660] (first compound 0.4 µM, partner dose 1 µM)
cleaved PARP positive nuclei fraction [1]: 276% | cleaved PARP positive nuclei fraction [2]: 286% | cleaved PARP positive nuclei fraction [3]: 392% | cleaved PARP positive nuclei fraction [4]: 111% | cleaved PARP positive nuclei fraction [5]: 146% | cleaved PARP positive nuclei fraction [6]: 111% | cleaved PARP positive nuclei fraction [7]: 50.8% | cleaved PARP positive nuclei fraction [8]: 120% | cleaved PARP positive nuclei fraction [9]: 306% | cleaved PARP positive nuclei fraction [10]: 93.9%

C[C@@H](N)c1ccc(C(=O)Nc2ccnc3[nH]ccc23)cc1 + O=S(=O)(c1ccccc1)N(CC(F)(F)F)c1ccc(C(O)(C(F)(F)F)C(F)(F)F)cc1 [T0901317] (first compound 0.4 µM, partner dose 1.4 µM)
cleaved PARP positive nuclei fraction [1]: 186% | cleaved PARP positive nuclei fraction [2]: 196% | cleaved PARP positive nuclei fraction [3]: 57.6% | cleaved PARP positive nuclei fraction [4]: 155% | cleaved PARP positive nuclei fraction [5]: 84.7% | cleaved PARP positive nuclei fraction [6]: 84.2% | cleaved PARP positive nuclei fraction [7]: 199% | cleaved PARP positive nuclei fraction [8]: 219% | cleaved PARP positive nuclei fraction [9]: 164% | cleaved PARP positive nuclei fraction [10]: 182%

COc1ccc(C2=N[C@@H](c3ccc(Cl)cc3)[C@@H](c3ccc(Cl)cc3)N2C(=O)N2CCNC(=O)C2)c(OC(C)C)c1 [Nutlin-3] + C=CCn1c(=O)c2cnc(Nc3ccc(N4CCN(C)CC4)cc3)nc2n1-c1cccc(C(C)(C)O)n1 [MK1775] (first compound 0.1 µM, partner dose 0.02 µM)
cleaved PARP positive nuclei fraction [1]: 97.6% | cleaved PARP positive nuclei fraction [2]: 66.8% | cleaved PARP positive nuclei fraction [3]: 48.8% | cleaved PARP positive nuclei fraction [4]: 44.6% | cleaved PARP positive nuclei fraction [5]: 81.5% | cleaved PARP positive nuclei fraction [6]: 135% | cleaved PARP positive nuclei fraction [7]: 220% | cleaved PARP positive nuclei fraction [8]: 33.2% | cleaved PARP positive nuclei fraction [9]: 79.1% | cleaved PARP positive nuclei fraction [10]: 209%

C[C@@H](N)c1ccc(C(=O)Nc2ccnc3[nH]ccc23)cc1 + NC(=O)Nc1cc(-c2cccc(F)c2)sc1C(=O)N[C@H]1CCCNC1 [AZD7762] (first compound 0.4 µM, partner dose 0.02 µM)
cleaved PARP positive nuclei fraction [1]: 160% | cleaved PARP positive nuclei fraction [2]: 119% | cleaved PARP positive nuclei fraction [3]: 126% | cleaved PARP positive nuclei fraction [4]: 41.2% | cleaved PARP positive nuclei fraction [5]: 90.9% | cleaved PARP positive nuclei fraction [6]: 81% | cleaved PARP positive nuclei fraction [7]: 42.3% | cleaved PARP positive nuclei fraction [8]: 65.8% | cleaved PARP positive nuclei fraction [9]: 84.1% | cleaved PARP positive nuclei fraction [10]: 216%

CCN(CC)CCNC(=O)c1c(C)[nH]c(/C=C2\C(=O)Nc3ccc(F)cc32)c1C [sunitinib] + CN(NC(=O)CC(=O)NN(C)C(=S)c1ccccc1)C(=S)c1ccccc1 [STA4783] (first compound 0.4 µM, partner dose 0.006 µM)
cleaved PARP positive nuclei fraction [1]: 150% | cleaved PARP positive nuclei fraction [2]: 56.6% | cleaved PARP positive nuclei fraction [3]: 46.2% | cleaved PARP positive nuclei fraction [4]: 1010% | cleaved PARP positive nuclei fraction [5]: 660% | cleaved PARP positive nuclei fraction [6]: 52.2% | cleaved PARP positive nuclei fraction [7]: 75.1% | cleaved PARP positive nuclei fraction [8]: 272% | cleaved PARP positive nuclei fraction [9]: 189% | cleaved PARP positive nuclei fraction [10]: 211%
